These are yes or no findings as the source states them, for the method shown. Binding seen in cells or lysates may run through a third protein.
Legend:
[1] = target: c-Myc phosphorylated at serine 62 (human (endogenous in SH-SY5Y and SK-N-BE(2))) (UniProt P01106); assay: co-IP; endogenous proteins in SH-SY5Y and SK-N-BE(2) cells, western blot, IgG as negative control; also cells stably transfected with sh-Scb, sh-LMNA #1 or #2, and SH-SY5Y cells treated with lobeline, prochlorperazine, sulphaphenazole or trifluoperazine (20 umol/L, 24 h)
[2] = target: c-Myc phosphorylated at threonine 58 (human (endogenous in SH-SY5Y and SK-N-BE(2))) (UniProt P01106); assay: as above
[3] = target: c-Myc-VN173 (pBiFC-c-Myc-VN173) (human) (UniProt P01106); assay: split reporter; BiFC in SK-N-BE(2) cells co-transfected with pBiFC-VN173 and pBiFC-VC155 constructs for 24 h, confocal microscopy; also cells treated with chemicals (20 umol/L, 24 h)

By UniProt entry, the sequences of proteins in these tests, tags left out. Where a name states a change or a piece, a line headed by the entry shows the natural chain unless it says otherwise. Chains listed by the source or under a name are the forms on record and can include a tag or linker.
UniProt P01106: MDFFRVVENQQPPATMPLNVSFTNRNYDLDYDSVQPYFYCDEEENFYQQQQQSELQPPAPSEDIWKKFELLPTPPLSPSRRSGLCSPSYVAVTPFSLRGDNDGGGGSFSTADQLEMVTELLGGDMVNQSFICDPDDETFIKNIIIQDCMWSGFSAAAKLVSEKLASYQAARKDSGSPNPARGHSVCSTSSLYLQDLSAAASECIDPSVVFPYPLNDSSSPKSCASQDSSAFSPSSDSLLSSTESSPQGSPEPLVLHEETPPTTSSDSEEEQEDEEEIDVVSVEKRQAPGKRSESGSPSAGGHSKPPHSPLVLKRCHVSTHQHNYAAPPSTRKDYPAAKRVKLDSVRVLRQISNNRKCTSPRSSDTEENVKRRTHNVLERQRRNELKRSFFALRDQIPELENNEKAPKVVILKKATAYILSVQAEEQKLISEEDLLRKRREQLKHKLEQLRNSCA
UniProt P12956: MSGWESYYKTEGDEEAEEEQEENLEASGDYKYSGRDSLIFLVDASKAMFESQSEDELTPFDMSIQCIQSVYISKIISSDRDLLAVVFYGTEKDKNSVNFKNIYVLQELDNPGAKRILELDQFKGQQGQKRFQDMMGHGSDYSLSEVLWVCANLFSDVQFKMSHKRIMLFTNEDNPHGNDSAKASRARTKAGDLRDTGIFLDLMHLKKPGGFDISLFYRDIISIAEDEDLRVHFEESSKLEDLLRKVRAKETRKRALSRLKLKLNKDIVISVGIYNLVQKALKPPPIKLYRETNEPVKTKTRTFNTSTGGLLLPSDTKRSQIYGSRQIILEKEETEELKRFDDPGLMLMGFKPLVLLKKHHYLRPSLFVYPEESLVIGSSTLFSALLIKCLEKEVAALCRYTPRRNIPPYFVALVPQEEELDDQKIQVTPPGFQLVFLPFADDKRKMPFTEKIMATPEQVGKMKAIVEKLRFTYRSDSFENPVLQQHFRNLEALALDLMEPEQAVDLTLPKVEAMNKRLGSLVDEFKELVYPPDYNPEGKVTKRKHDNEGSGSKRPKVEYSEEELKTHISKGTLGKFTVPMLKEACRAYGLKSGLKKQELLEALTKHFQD
UniProt Q92841: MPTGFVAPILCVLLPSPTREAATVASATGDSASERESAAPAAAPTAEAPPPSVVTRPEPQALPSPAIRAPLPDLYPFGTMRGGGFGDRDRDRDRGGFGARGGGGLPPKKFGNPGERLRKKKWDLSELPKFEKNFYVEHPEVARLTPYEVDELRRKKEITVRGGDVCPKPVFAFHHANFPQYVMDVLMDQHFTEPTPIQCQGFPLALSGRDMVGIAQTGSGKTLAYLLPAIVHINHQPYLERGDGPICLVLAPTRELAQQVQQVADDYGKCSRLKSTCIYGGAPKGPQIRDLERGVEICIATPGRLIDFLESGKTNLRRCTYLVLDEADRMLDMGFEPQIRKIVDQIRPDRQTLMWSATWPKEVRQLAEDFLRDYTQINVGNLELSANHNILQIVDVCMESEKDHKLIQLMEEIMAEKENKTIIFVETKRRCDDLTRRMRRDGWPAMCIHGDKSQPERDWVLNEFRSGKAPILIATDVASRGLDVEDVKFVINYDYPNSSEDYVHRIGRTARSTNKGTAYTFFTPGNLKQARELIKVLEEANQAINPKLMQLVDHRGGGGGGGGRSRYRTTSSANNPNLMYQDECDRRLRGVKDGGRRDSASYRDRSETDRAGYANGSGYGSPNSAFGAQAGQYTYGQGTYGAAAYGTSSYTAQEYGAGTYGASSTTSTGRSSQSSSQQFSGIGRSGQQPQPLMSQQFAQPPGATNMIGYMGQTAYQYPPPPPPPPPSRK
lamin C (LMNC), BiFC construct (P02545-2, form named): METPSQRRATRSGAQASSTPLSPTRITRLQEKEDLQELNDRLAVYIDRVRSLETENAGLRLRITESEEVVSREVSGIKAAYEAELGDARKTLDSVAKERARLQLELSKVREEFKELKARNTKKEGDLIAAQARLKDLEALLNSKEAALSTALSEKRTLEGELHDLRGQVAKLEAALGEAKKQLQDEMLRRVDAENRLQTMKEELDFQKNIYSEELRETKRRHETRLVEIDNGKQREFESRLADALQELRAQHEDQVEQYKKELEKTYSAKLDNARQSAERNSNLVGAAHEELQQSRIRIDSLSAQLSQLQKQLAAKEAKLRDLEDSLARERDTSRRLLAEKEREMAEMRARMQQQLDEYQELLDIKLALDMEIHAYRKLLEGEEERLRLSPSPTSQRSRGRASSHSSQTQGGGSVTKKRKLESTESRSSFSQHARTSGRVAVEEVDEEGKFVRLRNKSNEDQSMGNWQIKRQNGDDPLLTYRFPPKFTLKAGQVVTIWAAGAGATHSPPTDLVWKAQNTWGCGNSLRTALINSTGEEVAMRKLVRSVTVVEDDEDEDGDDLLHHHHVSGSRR

| binding [1] | binding [2] | binding [3] | Substance |
| --- | --- | --- | --- |
| no binding | no binding |  | X-ray repair cross complementing 6 (XRCC6) (from UniProt P12956 1-609) |
| no binding | no binding |  | DEAD-box helicase 17 (DDX17) (from UniProt Q92841 1-729) |
|  |  | no binding | lamin C (LMNC), BiFC construct (from UniProt P02545-2 1-572) |

From publication PMC11106511
